Laboratory results from the supplement of paper PMC4749390.
Where a name gives a salt, the structure may show the parent alone. The list shows a part of the results. This data set is noisy: repeats of one test often differ as much as different tests do.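 Wild-type human LRH-1, a heavily sumoylated nuclear receptor, is tetracycline-inducible in stable JEG3 cells. RT-qPCR measured SUMO-sensitive APOC3 and MUC1 transcripts, which rise with SUMO-less LRH-1 or UBC9 knockdown, versus TBP and DMSO controls. Robust Z-scores beyond ±2 flagged primary hits, followed by toxicity and TBP filtering.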

Test system: JEG3 expressing hLRH-1
Assay: MUC1 transcript change (ddCt vs TBP and DMSO), Z-score over library; higher = higher MUC1 expression
Conditions: 10 µM; time (hr): 24

| Compound | MUC1 transcript change (Z-score) |
| --- | --- |
| Cc1cn([C@H]2C=C[C@@H](CO)O2)c(=O)[nH]c1=O [stavudine] | 1.04 |
| COc1ccnc(CS(=O)c2nc3cc(OC(F)F)ccc3[nH]2)c1OC (centres undefined) [pantoprazole] | 0.717 |
| COc1ccccc1OCC(O)COC(N)=O (centres undefined) [methocarbamol] | 0.15 |
| COc1ccc2c(c1)c(CC(=O)O)c(C)n2C(=O)c1ccc(Cl)cc1 [Indomethacin] | 0.741 |
| CC1(C)O[C@@H]2[C@@H](CO[C@@]3(COS(N)(=O)=O)OC(C)(C)O[C@@H]23)O1 [topiramate] | -0.663 |
| CC(=O)OCC(=O)[C@@]1(O)CCC2C3CCC4=CC(=O)CC[C@]4(C)C3[C@@H](O)C[C@@]21C (some centres undefined) [hydrocortisone acetate] | -0.753 |
| CC(C)CCC[C@@H](C)[C@H]1CC[C@H]2[C@@H]3CC=C4C[C@@H](O)CC[C@]4(C)[C@H]3CC[C@]12C [cholesterol] | 0.977 |
| O=C(O)CCc1nc2ccccc2[nH]1 [procodazole] | 0.215 |
| C[N+](C)(C)CCOP(=O)([O-])OP(=O)(O)OC[C@H]1O[C@@H](n2ccc(N)nc2=O)[C@H](O)[C@@H]1O [citicoline] | 0.774 |
| CN1C(=O)CC[C@H]1c1cccnc1 [cotinine] | 0.461 |
| O=C(O)c1cn(-c2ccc(F)cc2)c2cc(N3CCNCC3)c(F)cc2c1=O [sarafloxacin hydrochloride] | 0.368 |
| CCCCC(CC)CCC(CC(C)C)OS(=O)(=O)O (centres undefined) [sodium tetradecyl sulfate] | 0.323 |
| N[C@@H]1CONC1=O [D-Cycloserine] | -0.0421 |
| O=C(O)c1cc(O)c2c(c1)[C@@H]([C@H]1c3cc(C(=O)O)cc(O)c3C(=O)c3c(O[C@H]4O[C@H](CO)[C@@H](O)[C@H](O)[C@H]4O)cccc31)c1cccc(O[C@H]3O[C@H](CO)[C@@H](O)[C@H](O)[C@H]3O)c1C2=O (stereo in doubt) [sennoside a] | 0.566 |
| CC(=O)NC[C@H]1CN(c2ccc(N3CCOCC3)c(F)c2)C(=O)O1 [linezolid] | 1.64 |
| CC(=O)O[C@]1(C(C)=O)CC[C@H]2[C@@H]3C=C(Cl)C4=CC(=O)[C@@H]5C[C@@H]5[C@]4(C)[C@H]3CC[C@@]21C [cyproterone acetate] | 0.5 |
| Nc1nc(O)c2ncn(COC(CO)CO)c2n1 [ganciclovir] | 0.832 |
| O=S(=O)(c1cccc2cnccc12)N1CCCNCC1 [fasudil hydrochloride] | -0.949 |
| CC(C)/N=C(N)/N=C(\N)Nc1ccc(Cl)cc1 [chlorguanide hydrochloride] | 1.31 |
| c1ccc(-c2ccc(C(c3ccccc3)n3ccnc3)cc2)cc1 (centres undefined) [bifonazole] | -0.206 |
| CCCCCCCCCCCCCCCC(=O)OC[C@@H](NC(=O)C(Cl)Cl)[C@H](O)c1ccc([N+](=O)[O-])cc1 [chloramphenicol palmitate] | 0.117 |
| CCOc1nc2cccc(C(=O)OC(C)OC(=O)OC3CCCCC3)c2n1Cc1ccc(-c2ccccc2-c2nn[nH]n2)cc1 (centres undefined) [candesartan cilextil] | 0.0709 |
| CCN(CC)CCNC(=O)c1cc(S(C)(=O)=O)ccc1OC [tiapride hydrochloride] | 0.568 |

| Compound | MUC1 transcript change (Z-score) |
| --- | --- |
| O=C1CN(/N=C/c2ccc(-c3ccc([N+](=O)[O-])cc3)o2)C(=O)N1 [dantrolene sodium] | 0.143 |
| Nc1nnc(-c2cccc(Cl)c2Cl)c(N)n1 [lamotrigine] | -0.256 |
| CC(=O)Oc1ccccc1C(=O)O [aspirin] | 0.52 |
| COCCCC/C(=N\OCCN)c1ccc(C(F)(F)F)cc1 [fluvoxamine maleate] | 0.387 |
| Cc1c2oc3c(C)ccc(C(=O)OC(C)C4NC(=O)C(C(C)C)N(C)C(=O)CN(C)C(=O)C5CCCN5C(=O)C(C(C)C)NC4=O)c3nc-2c(C(=O)OC(C)C2NC(=O)C(C(C)C)N(C)C(=O)CN(C)C(=O)C3CCCN3C(=O)C(C(C)C)NC2=O)c(N)c1=O (centres undefined) [dactinomycin] | 6.13 |
| CC(C)(C#N)c1cc(Cn2cncn2)cc(C(C)(C)C#N)c1 [anastrozole] | 0.503 |
| O=NN(CCCl)C(=O)NCCCl [carmustine] | 0.968 |
| Cc1ncc(CO)c(CO)c1O [pyridoxine] | 0.52 |
| CC(=O)O[C@]1(C(C)=O)CCC2C3C[C@H](C)C4=CC(=O)CC[C@]4(C)C3CC[C@@]21C (some centres undefined) [medroxyprogesterone acetate] | 0.615 |
| CN1CC(=O)N2[C@H](c3ccc4c(c3)OCO4)c3[nH]c4ccccc4c3C[C@@H]2C1=O [tadalafil] | 1.27 |
| N[C@@H](CCC(=O)N[C@@H](CS)C(=O)NCC(=O)O)C(=O)O [glutathione] | -0.0552 |
| CCN(CC)C(=O)c1cccc(C)c1 [deet] | -0.219 |
| CCN(CC)C(=O)c1cccnc1 [nikethamide] | -3.15 |
| CCCCCCCCCC(=O)N[C@@H](Cc1c[nH]c2ccccc12)C(=O)N[C@@H](CC(N)=O)C(=O)N[C@@H](CC(=O)O)C(=O)N[C@@H]1C(=O)NCC(=O)N[C@@H](CCCN)C(=O)N[C@@H](CC(=O)O)C(=O)N[C@H](C)C(=O)N[C@@H](CC(=O)O)C(=O)NCC(=O)N[C@H](CO)C(=O)NC([C@@H](C)CC(=O)O)C(=O)N[C@@H](CC(=O)c2ccccc2N)C(=O)O[C@H]1C (some centres undefined) [daptomycin (5 millimolar/dmso)] | 0.497 |
| CC(=O)N(CC(O)CN(C(C)=O)c1c(I)c(C(=O)NCC(O)CO)c(I)c(C(=O)NCC(O)CO)c1I)c1c(I)c(C(=O)NCC(O)CO)c(I)c(C(=O)NCC(O)CO)c1I (centres undefined) [iodixanol] | -0.485 |
| NC(=O)N1c2ccccc2C=Cc2ccccc21 [Carbamazepine] | 0.481 |
| CC(O)C(=O)O (centres undefined) [ammonium lactate] | 0.164 |
| CC(C)(C)c1ccc(C(O)CCCN2CCC(C(O)(c3ccccc3)c3ccccc3)CC2)cc1 (centres undefined) [terfenadine] | -0.21 |
| N[C@@H](Cc1cc(I)c(Oc2cc(I)c(O)c(I)c2)c(I)c1)C(=O)O [thyroxine] | 0.342 |
| Oc1nc2ccccc2n1CCCN1CCC(n2c(O)nc3cc(Cl)ccc32)CC1 [Domperidone] | 0.814 |
| CN1Cc2c(N)cccc2C(c2ccccc2)C1 (centres undefined) [Nomifensine maleate] | 0.702 |
| Cc1cc(CC(=O)O)n(C)c1C(=O)c1ccc(Cl)cc1 [zomepirac sodium] | -0.34 |
| Nc1ccc(C(=O)O)cc1 [potassium p-aminobenzoate] | 1.24 |

| Compound | MUC1 transcript change (Z-score) |
| --- | --- |
| Cc1cnc(NC(=O)C2=C(O)c3ccccc3S(=O)(=O)N2C)s1 [meloxicam] | 0.823 |
| CC(=O)O[C@@]12CO[C@@H]1C[C@H](O)[C@@]1(C)C(=O)[C@H](O)C3=C(C)[C@@H](OC(=O)[C@H](O)[C@@H](NC(=O)OC(C)(C)C)c4ccccc4)C[C@@](O)([C@@H](OC(=O)c4ccccc4)[C@H]21)C3(C)C [docetaxel] | -0.909 |
| CCCCC(=O)O[C@H]1CC[C@H]2[C@@H]3CCc4cc(O)ccc4[C@H]3CC[C@]12C [estradiol valerate] | 0.135 |
| O=C(OC[C@H]1O[C@@H](OC(=O)c2cc(O)c(O)c(OC(=O)c3cc(O)c(O)c(O)c3)c2)[C@H](OC(=O)c2cc(O)c(O)c(OC(=O)c3cc(O)c(O)c(O)c3)c2)[C@@H](OC(=O)c2cc(O)c(O)c(OC(=O)c3cc(O)c(O)c(O)c3)c2)[C@@H]1OC(=O)c1cc(O)c(O)c(OC(=O)c2cc(O)c(O)c(O)c2)c1)c1cc(O)c(O)c(OC(=O)c2cc(O)c(O)c(O)c2)c1 [tannic acid] | 4.32 |
| Cc1ccc(Nc2c(F)cccc2Cl)c(CC(=O)O)c1 [lumiracoxib] | -0.166 |
| CCOc1ccc2ccccc2c1NC(=O)[C@@H]1C(=O)N2C(C(=O)O)C(C)(C)S[C@H]12 (some centres undefined) [nafcillin sodium] | -0.507 |
| CC(CNCCc1ccc(O)c(O)c1)Cc1cccc(O)c1 (centres undefined) [dobutamine hydrochloride] | -0.186 |
| Cc1ccc2c(Br)cc(Br)c(OC(=O)c3ccccc3)c2n1 [broxaldine] | 1.91 |
| Cc1cccc(C(=O)O)c1O [hydroxytoluic acid] | -0.582 |
| CN(C/C=C/C#CC(C)(C)C)Cc1cccc2ccccc12 [terbinafine hydrochloride] | -0.302 |
| O=C1NC(=O)C(c2ccccc2)(c2ccccc2)N1 [Phenytoin sodium] | -0.192 |
| CCN(Cc1ccncc1)C(=O)C(CO)c1ccccc1 (centres undefined) [Tropicamide] | -0.144 |
| COc1cc(O)cc(C(=O)c2ccccc2)c1S(=O)(=O)O [sulisobenzone] | 0.0942 |
| COc1cccc2c1C(=O)c1c(O)c3c(c(O)c1C2=O)C[C@@](O)(C(=O)CO)C[C@@H]3O[C@H]1C[C@H](N)[C@H](O)[C@H](C)O1 [doxorubicin] | 5.38 |
| CC1(C)S[C@@H]2[C@H](NC(=O)[C@H](N)c3ccc(O)cc3)C(=O)N2[C@H]1C(=O)O [amoxicillin] | 0.59 |
| COc1c2occc2cc2ccc(=O)oc12 [methoxsalen] | -1.19 |
| COc1nc(N)nc2c1ncn2C1O[C@H](CO)[C@@H](O)[C@@H]1O (some centres undefined) [nelarabin] | -0.371 |
| CC1CCc2cc(F)cc3c(=O)c(C(=O)O)cn1c23 (centres undefined) [flumequine] | -0.233 |
| C[C@]12CCC3c4ccc(O)cc4CCC3C1CC[C@@H]2O (some centres undefined) [estradiol] | 0.103 |
| NC(=O)C(c1ccccc1)(c1ccccc1)C1CCN(CCc2ccc3c(c2)CCO3)C1 (centres undefined) [darifenacin hydrobromide] | 0.538 |
| c1ccc2c(c1)CCCC2C1=NCCN1 (centres undefined) [tetrahydrozoline hydrochloride] | -0.302 |
| CNCCCN1c2ccccc2CCc2ccccc21 [Desipramine hydrochloride] | -0.269 |
| CCO/C(O)=C1\C(C)=NC(C)=C(C(=O)OC)C1c1cccc([N+](=O)[O-])c1 (centres undefined) [Nitrendipine] | -0.589 |
